Experimental data published in paper PMC10865787.

Chains of the proteins cited; added tags and fusions are not shown.
UniProt P0DTC6: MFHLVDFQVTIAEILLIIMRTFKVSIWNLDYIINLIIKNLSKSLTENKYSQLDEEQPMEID
UniProt Q96JK2: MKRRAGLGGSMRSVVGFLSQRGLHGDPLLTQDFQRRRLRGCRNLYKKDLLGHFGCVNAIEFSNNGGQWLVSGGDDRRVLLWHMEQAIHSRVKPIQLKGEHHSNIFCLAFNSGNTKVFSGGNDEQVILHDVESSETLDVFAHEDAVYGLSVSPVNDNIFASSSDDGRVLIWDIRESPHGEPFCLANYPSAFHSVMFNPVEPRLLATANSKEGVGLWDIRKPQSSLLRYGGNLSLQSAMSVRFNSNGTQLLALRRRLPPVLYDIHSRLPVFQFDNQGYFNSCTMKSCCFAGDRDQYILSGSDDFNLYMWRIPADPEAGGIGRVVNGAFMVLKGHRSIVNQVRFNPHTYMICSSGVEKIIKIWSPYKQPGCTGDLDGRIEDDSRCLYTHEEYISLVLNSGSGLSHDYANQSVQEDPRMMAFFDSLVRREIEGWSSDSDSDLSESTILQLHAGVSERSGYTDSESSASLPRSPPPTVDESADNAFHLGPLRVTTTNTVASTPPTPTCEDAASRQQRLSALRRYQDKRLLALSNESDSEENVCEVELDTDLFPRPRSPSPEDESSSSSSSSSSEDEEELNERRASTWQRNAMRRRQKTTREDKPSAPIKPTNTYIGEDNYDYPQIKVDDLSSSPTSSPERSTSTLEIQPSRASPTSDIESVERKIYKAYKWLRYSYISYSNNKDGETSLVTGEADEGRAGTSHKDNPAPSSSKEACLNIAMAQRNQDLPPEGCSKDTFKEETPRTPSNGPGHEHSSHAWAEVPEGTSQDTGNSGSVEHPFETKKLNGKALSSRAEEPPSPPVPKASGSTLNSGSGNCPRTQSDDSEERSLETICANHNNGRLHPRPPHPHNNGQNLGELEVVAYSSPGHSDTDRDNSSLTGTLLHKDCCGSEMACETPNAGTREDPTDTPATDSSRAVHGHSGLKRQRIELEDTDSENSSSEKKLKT
UniProt Q16531: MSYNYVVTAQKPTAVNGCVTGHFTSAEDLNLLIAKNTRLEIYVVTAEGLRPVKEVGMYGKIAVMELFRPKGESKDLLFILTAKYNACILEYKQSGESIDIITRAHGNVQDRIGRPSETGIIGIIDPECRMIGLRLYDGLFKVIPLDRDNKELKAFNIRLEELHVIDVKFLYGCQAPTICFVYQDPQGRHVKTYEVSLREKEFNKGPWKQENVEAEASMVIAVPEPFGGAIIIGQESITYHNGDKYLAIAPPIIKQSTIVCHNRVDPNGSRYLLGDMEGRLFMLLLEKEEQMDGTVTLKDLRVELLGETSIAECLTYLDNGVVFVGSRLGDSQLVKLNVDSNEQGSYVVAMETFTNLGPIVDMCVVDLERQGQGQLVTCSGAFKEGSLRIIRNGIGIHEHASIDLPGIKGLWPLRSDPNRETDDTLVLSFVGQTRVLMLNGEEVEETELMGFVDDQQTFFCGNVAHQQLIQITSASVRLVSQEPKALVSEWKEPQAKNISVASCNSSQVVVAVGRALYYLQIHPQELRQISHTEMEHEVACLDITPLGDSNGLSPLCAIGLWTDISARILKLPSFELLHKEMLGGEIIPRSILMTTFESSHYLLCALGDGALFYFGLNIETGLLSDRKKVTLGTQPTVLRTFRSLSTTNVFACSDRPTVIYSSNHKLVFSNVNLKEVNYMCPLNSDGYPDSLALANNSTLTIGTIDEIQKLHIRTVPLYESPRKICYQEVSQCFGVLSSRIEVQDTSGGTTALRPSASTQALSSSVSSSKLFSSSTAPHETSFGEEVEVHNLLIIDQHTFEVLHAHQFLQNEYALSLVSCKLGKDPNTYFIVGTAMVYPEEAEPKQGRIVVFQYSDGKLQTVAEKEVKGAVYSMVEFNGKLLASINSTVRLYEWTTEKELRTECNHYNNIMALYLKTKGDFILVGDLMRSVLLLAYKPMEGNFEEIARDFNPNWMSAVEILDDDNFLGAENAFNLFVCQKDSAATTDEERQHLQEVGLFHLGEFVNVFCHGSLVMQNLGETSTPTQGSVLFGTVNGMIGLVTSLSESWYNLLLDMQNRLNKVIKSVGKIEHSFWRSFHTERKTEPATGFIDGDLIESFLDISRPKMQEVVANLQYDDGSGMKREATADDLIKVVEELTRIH
UniProt Q9BQA1: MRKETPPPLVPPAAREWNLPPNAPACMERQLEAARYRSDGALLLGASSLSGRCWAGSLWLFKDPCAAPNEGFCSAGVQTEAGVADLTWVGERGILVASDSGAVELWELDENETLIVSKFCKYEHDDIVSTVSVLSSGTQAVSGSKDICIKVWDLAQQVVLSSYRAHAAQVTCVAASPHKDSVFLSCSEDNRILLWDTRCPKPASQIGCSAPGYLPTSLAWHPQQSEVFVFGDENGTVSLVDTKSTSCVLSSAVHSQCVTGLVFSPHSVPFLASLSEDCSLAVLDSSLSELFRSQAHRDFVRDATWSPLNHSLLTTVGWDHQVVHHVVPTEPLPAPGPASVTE
UniProt Q6UXN9: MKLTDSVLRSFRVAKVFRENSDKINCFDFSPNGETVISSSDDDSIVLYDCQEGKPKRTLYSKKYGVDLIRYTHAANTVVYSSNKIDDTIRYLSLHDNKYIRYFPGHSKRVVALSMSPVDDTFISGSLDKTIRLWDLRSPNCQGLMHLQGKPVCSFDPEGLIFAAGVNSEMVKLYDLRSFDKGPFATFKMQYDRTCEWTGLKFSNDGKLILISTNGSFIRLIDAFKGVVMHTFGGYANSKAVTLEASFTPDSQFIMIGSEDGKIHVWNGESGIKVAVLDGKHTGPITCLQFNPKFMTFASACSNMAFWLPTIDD

molecular target: SARS-CoV-2 ORF6-HA (SARS-CoV-2) (UniProt P0DTC6); assay: affinity purification with mass spectrometry

Molecule | binding
DCAF5 (from UniProt Q96JK2 1-942) | binds
DDB1, endogenous (from UniProt Q16531 1-1140) | binds
WDR77 (from UniProt Q9BQA1 1-342) | binds
WDR82 (from UniProt Q6UXN9 1-313) | binds

molecular target: SARS-CoV-2 ORF6-HA (SARS-CoV-2) (UniProt P0DTC6); assay: affinity purification with mass spectrometry; remark: another data set of the same source

Molecule | binding
WDR83 (protein, UniProt Q9BRX9 1-315) MAFPEPKPRPPELPQKRLKTLDCGQGAVRAVRFNVDGNYCLTCGSDKTLKLWNPLRGTLLRTYSGHGYEVLDAAGSFDNSSLCSGGGDKAVVLWDVASGQVVRKFRGHAGKVNTVQFNEEATVILSGSIDSSIRCWDCRSRRPEPVQTLDEARDGVSSVKVSDHEILAGSVDGRVRRYDLRMGQLFSDYVGSPITCTCFSRDGQCTLVSSLDSTLRLLDKDTGELLGEYKGHKNQEYKLDCCLSERDTHVVSCSEDGKVFFWDLVEGALALALPVGSGVVQSLAYHPTEPCLLTAMGGSVQCWREEAYEAEDGAG | binds
WDR11 (protein, UniProt Q9BZH6 1-1224) MLPYTVNFKVSARTLTGALNAHNKAAVDWGWQGLIAYGCHSLVVVIDSITAQTLQVLEKHKADVVKVKWARENYHHNIGSPYCLRLASADVNGKIIVWDVAAGVAQCEIQEHAKPIQDVQWLWNQDASRDLLLAIHPPNYIVLWNADTGTKLWKKSYADNILSFSFDPFDPSHLTLLTSEGIVFISDFSPSKPPSGPGKKVYISSPHSSPAHNKLATATGAKKALNKVKILITQEKPSAEFITLNDCLQLAYLPSKRNHMLLLYPREILILDLEVNQTVGVIAIERTGVPFLQVIPCFQRDGLFCLHENGCITLRVRRSYNNIFTTSNEEPDPDPVQELTYDLRSQCDAIRVTKTVRPFSMVCCPVNENAAALVVSDGRVMIWELKSAVCNRNSRNSSSGVSPLYSPVSFCGIPVGVLQNKLPDLSLDNMIGQSAIAGEEHPRGSILREVHLKFLLTGLLSGLPAPQFAIRMCPPLTTKNIKMYQPLLAVGTSNGSVLVYHLTSGLLHKELSIHSCEVKGIEWTSLTSFLSFATSTPNNMGLVRNELQLVDLPTGRSIAFRGERGNDESAIEMIKVSHLKQYLAVVFRDKPLELWDVRTCTLLREMSKNFPTITALEWSPSHNLKSLRKKQLATREAMARQTVVSDTELSIVESSVISLLQEAESKSELSQNISAREHFVFTDIDGQVYHLTVEGNSVKDSARIPPDGSMGSITCIAWKGDTLVLGDMDGNLNFWDLKGRVSRGIPTHRSWVRKIRFAPGKGNQKLIAMYNDGAEVWDTKEVQMVSSLRSGRNVTFRILDVDWCTSDKVILASDDGCIRVLEMSMKSACFRMDEQELTEPVWCPYLLVPRASLALKAFLLHQPWNGQYSLDISHVDYPENEEIKNLLQEQLNSLSNDIKKLLLDPEFTLLQRCLLVSRLYGDESELHFWTVAAHYLHSLSQEKSASTTAPKEAAPRDKLSNPLDICYDVLCENAYFQKFQLERVNLQEVKRSTYDHTRKCTDQLLLLGQTDRAVQLLLETSADNQHYYCDSLKACLVTTVTSSGPSQSTIKLVATNMIANGKLAEGVQLLCLIDKAADACRYLQTYGEWNRAAWLAKVRLNPEECADVLRRWVDHLCSPQVNQKSKALLVLLSLGCFFSVAETLHSMRYFDRAALFVEACLKYGAFEVTEDTEKLITAIYADYARSLKNLGFKQGAVLFASKAGAAGKDLLNELESPKEEPIEE | binds

These are yes or no findings as the source states them, for the method shown. In cells and extracts the contact can be indirect. A yes stands for co-enrichment or nearness to the bait. Other partners may have been found.
